Experimental data as given in patent EP4707304A1 (Axcynsis Therapeutics Pte. Ltd., dated 2024).
Where a chain is given by its changes, count along the chain named. Names and notes keep the numbering of the source. No constants are given. Whether binding was seen depends on the method and setting. Some entries that bind do so weakly or less than the wild type.

T1: VLP-hCLDN6 (human) (UniProt P56747)
T1 sequence: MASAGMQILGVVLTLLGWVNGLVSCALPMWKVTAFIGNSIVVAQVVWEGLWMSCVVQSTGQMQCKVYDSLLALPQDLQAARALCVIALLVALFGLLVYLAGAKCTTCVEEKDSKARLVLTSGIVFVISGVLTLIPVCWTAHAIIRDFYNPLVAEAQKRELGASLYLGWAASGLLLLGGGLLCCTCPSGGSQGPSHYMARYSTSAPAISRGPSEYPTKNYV

B1: murine/human chimeric antibody cAb-2 (antibody, V domains shown)
VH: EVKLVESGGGLVKPGGSLKLSCAASGFTFNEYTMSWVRQTPAKRLEWVVTISSGGGRTYYPDSVKGRFTISRDNARNTLYLQMSSLRSEDTAMYYCIRGDYRYDGFAYWGQGTLVTVST
VL: DIQMTQSPASLSASVGETVTITCRASENIDSYLAWYQQKQGKSPQLLVYASTLLVDGVPSRFSGSRSGTQFSLKINSLQSEDVARYYCQHYYSIPYTFGSGTKLEIK
notes: also called cAb-1 with S31E
B2: murine/human chimeric antibody cAb-18 (antibody, V domains shown)
VH: B1 VH with E31S, G105K
VL: B1 VL
notes: also called cAb-1 with G100K
B3: humanized antibody hAb-29 (antibody, V domains shown)
VH: B1 VH with K19R, E31D, R76K, S88A, M93V, T119S
VL: B1 VL with A9S, E17D, T18R, Q40P, K74T, N76S, S80P
notes: also called VH2VL4 with HC S31D
B4: humanized antibody hAb-26 (antibody, V domains shown)
VH: B1 VH with K19R, E31Y, R76K, S88A, M93V, T119S
VL: B1 VL with A9S, E17D, T18R, Q40P, K74T, N76S, S80P
notes: also called VH2VL4 with HC S31Y
B5: humanized antibody hAb-34 (antibody, V domains shown)
VH: B1 VH with K19R, E31D, R76K, S88A, M93V, G105A, T119S
VL: B1 VL with A9S, E17D, T18R, Q40P, K74T, N76S, S80P
notes: also called VH2VL4 with HC S31D/G100A
B6: humanized antibody hAb-28 (antibody, V domains shown)
VH: B1 VH with K19R, E31Q, R76K, S88A, M93V, T119S
VL: B1 VL with A9S, E17D, T18R, Q40P, K74T, N76S, S80P
notes: also called VH2VL4 with HC S31Q
B7: humanized antibody hAb-33 (antibody, V domains shown)
VH: B1 VH with K19R, E31S, R76K, S88A, M93V, G105A, T119S
VL: B1 VL with A9S, E17D, T18R, Q40P, K74T, N76S, S80P
notes: also called VH2VL4 with HC G100A
B8: humanized antibody hAb-30 (antibody, V domains shown)
VH: B1 VH with K19R, R76K, S88A, M93V, T119S
VL: B1 VL with A9S, E17D, T18R, Q40P, K74T, N76S, S80P
notes: also called VH2VL4 with HC S31E
B9: murine/human chimeric antibody cAb-3 (antibody, V domains shown)
VH: B1 VH with E31D
VL: B1 VL
notes: also called cAb-1 with S31D
B10: humanized antibody hAb-27 (antibody, V domains shown)
VH: B1 VH with K19R, E31M, R76K, S88A, M93V, T119S
VL: B1 VL with A9S, E17D, T18R, Q40P, K74T, N76S, S80P
notes: also called VH2VL4 with HC S31M

The binders below were run against T1, VLP-hCLDN6 (human) (assay: ELISA on coated VLP-hCLDN6).

Row | Binder | binding
1 | B1 | binds
2 | B2 | binds
3 | B3 | binds
4 | B4 | binds
5 | B5 | binds
6 | B6 | binds
7 | B7 | binds
8 | B8 | binds
9 | B9 | binds
10 | B10 | binds
